Measurements from PubChem BioAssay AID504327 (National Center for Advancing Translational Sciences (NCATS), 2011).
Among all 390,000 compounds or so, about 820 (0.21%) were called active. This list was built around the results that the source calls inconclusive (neither active nor inactive); the mix of calls is not that of the screen. Calls follow the shape of the dose curve; as a rule, active = well fitted inhibition curve with a large enough effect; inconclusive = small, poorly fitted or top-dose-only effect, or another doubt; inactive = no such curve, though single readings can be large or run the other way. Where the call is inconclusive, the potency comes from a doubtful curve fit.

Sequences of proteins named here, by UniProt entry; tags and fusion partners are left off.
UniProt Q92830, whole entry, looked up: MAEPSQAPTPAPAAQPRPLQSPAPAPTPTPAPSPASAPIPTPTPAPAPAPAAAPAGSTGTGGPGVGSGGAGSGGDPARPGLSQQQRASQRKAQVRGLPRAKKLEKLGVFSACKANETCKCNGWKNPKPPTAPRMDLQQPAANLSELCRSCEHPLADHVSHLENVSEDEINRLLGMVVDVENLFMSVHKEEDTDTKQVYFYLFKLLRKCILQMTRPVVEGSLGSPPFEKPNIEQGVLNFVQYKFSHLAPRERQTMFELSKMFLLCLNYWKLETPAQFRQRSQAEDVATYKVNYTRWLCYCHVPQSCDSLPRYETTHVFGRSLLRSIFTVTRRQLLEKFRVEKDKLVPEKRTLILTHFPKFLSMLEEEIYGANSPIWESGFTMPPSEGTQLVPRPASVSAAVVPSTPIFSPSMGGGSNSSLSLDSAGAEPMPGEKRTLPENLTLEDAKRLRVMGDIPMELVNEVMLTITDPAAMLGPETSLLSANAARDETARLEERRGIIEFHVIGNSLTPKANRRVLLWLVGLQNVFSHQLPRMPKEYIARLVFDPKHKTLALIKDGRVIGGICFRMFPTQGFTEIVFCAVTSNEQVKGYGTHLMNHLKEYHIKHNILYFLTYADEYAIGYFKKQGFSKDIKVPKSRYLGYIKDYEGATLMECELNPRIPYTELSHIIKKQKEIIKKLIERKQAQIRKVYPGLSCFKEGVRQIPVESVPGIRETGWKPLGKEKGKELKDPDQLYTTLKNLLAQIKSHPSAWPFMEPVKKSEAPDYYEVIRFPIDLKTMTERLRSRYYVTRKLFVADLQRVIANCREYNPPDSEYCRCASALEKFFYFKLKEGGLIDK

target: Histone acetyltransferase KAT2A (Homo sapiens) (UniProt Q92830); test: qHTS Assay for Inhibitors of GCN5L2; conditions: GCN5L2 HAT assay, ThioGlo1 CoA-SH fluorescence; activity change, negative = inhibition: at 58.9 µM (top of the series) unless noted
Text: Histone acetyltransferase (HAT) enzymes transfer a […] group from acetyl-coenzyme A to the epsilon-amino group of conserved lysine residues of N-terminal histone tails. Acetylation results in charge neutralization of this positively charged amino acid, decreasing interactions with the […] backbone and making the DNA more accessible for transcription. HATs have been recognized as an emerging drug target for treatment of cancer, diabetes, asthma, chronic obstructive pulmonary disease, cardiac disease, and viral infection. Protein identified with HAT activity include the […] like 2 (GCN5L2, a.ka. Histone acetyltransferase KAT2A) which acetylates histone H3 at Lys9, 14, 18, 13, and to lesser extent histones H4 and H2B. This activates transcription of the gene by modulating chromatin structure and installing the acetyllysine recognition mark for bromodomain-containing coactivator proteins.
A quantitative high throughput screen was developed to identify small molecule inhibitors. The assay is based on the principle that it measures formation of reduced CoA with the pro-fluorescent maleimide derivative ThioGlo1 that becomes fluorescent upon reaction with the free thiol of CoA.
A large number of artifacts are expected in this primary screen, compounded by the assay format (fluorescent artifacts) and by the high top concentration tested for each substance. This BioAssay data deposition should be used with caution, and counterscreen and secondary assay validation is essential since very few actives from the primary screen are expected to be true inhibitors of GCN5L2.
[2] Yasgar, et al. Compound Management for Quantitative High-Throughput Screening. JALA. 2008 Apr;13(2):79-89.
[3] Inglese, et al. Quantitative high-throughput screening: a titration-based approach that efficiently identifies biological activities in large chemical libraries. Proc Natl Acad Sci. 1;103(31):11473-8. 2006. PMID: 16864780
NIH Molecular Libraries Probe Production Network [MLPCN]
NIH Chemical Genomics Center [NCGC]
Structural Genomics Consortium (SGC)
To each well of a 1,536w plate, 3ul of GCN5L2 (final concentration 20nM, in 50mM HEPES, 0.1mM EDTA (pH 7.5), 0.01% Tween-20 buffer) are added using a Kalypsys dispenser. Only buffer is added to some wells as a control. A Kalypsys pin-tool transferred 23nl of library compound solution in DMSO to each well, as well as the control inhibit garcinol. . Following a 15 min incubation of enzyme with compounds at room temperature, 1ul mixture of ThioGlo1 (50uM final), H3(1-25) peptide (75uM final), and Acetyl-CoA (70uM final) is added. Plates are read immediately on the ViewLux (PerkinElmer) (Ex340nm/Em540nm) for a 0 min read, incubated for 20 min at room temperature, and read again on the ViewLux with the same settings. The initial read was carried out to identify compounds that are potentially fluorescent.
% is scaled to controls: 0 for no effect and ±100 for the full control effect; potency is read from the fitted curve at half-maximal effect.

Structure (SMILES) | Potency | activity change, negative = inhibition
O=C(CN1CCCC1)Nc1cc(C(F)(F)F)cc(C(F)(F)F)c1 | inconclusive: 8.91 µM [inhibitor, single point] | –
CN(Cc1ccc(-n2cccn2)cc1)Cc1cn(C)nc1-c1ccccc1F | inconclusive: 39.8 µM [inhibitor, single point] | –
Cc1ccc(Cc2cncc(O)c2)cc1S(=O)(=O)O | inconclusive: 39.8 µM [inhibitor, single point] | –
O=C(Nc1ccccc1)c1ccc(-c2ccc([N+](=O)[O-])cc2)o1 | – | inactive: -26.7%
COc1ccc(N(CC(=O)NCCSC2CCCCC2)S(=O)(=O)c2ccccc2)c(OC)c1 | inconclusive: 15.8 µM [inhibitor, partial curve, poor fit] | –
COc1ccc(C(=O)/C=C\N2CCOCC2)cc1 | inconclusive: 39.8 µM [inhibitor, single point] | –
O=C(O)COc1cccc(-c2ocnc2-c2nc(-c3ccccc3)c(-c3ccccc3)o2)c1 | inconclusive: 31.6 µM [inhibitor, partial curve] | –
O=C(Nc1ncc2c(n1)-c1ccccc1CC2)c1ccc(Cl)cc1 | – | inactive: -5.59%
CCCOc1ccc(-c2nn(-c3ccccc3)cc2/C=C2\SC(N)=NC2=O)cc1C | inconclusive: 6.31 µM [inhibitor, full curve] | –
CSc1nccc(NC(=O)c2ccc(C(C)(C)C)cc2)n1 | inconclusive: 7.08 µM [inhibitor, single point] | –
CNc1cc(-c2ccccc2C)ncn1 | inconclusive: 39.8 µM [inhibitor, single point] | –
CCCCCCSc1cc(-c2nc3cnccn3c2NCc2ccccc2)ccc1OC | inconclusive: 17.8 µM [inhibitor, single point] | –
Cc1ccc(NC(=O)CSc2nnc3[nH]c(=O)cc(-c4ccccc4)n23)cc1Cl | inconclusive: 39.8 µM [inhibitor, single point] | –
CCCCNC(=O)c1ccc(NS(=O)(=O)c2ccc3[nH]c(=O)[nH]c3c2)cc1 | inconclusive: 39.8 µM [inhibitor, single point] | –
Cn1cc(Br)c(-c2cccc(N3C(=O)CCCC3=O)c2)n1 | inconclusive: 0.708 µM [inhibitor, full curve, poor fit] | –
Cc1nn(-c2ccccc2)c2sc(-c3n[nH]c(=S)o3)cc12 | inconclusive: 39.8 µM [inhibitor, single point] | –
COc1cc(/C=C(/C#N)c2nc(-c3cc4ccccc4oc3=O)cs2)cc([N+](=O)[O-])c1O | inconclusive: 39.8 µM [inhibitor, partial curve, poor fit] | –
COc1ccc(S(=O)(=O)NCCc2ccncc2)cc1 | inconclusive: 0.158 µM [inhibitor, full curve, poor fit] | –
CCN(CC)Cc1c(O)c(Cl)cc2c(C)cc(=O)oc12 | inconclusive: 28.2 µM [inhibitor, single point] | –
Cc1onc(-c2ccccc2)c1C(=O)Nc1ccccc1NC(=O)c1c(-c2ccccc2)noc1C | – | inactive: -8.29%
O=C(NN1C(=O)C2CC=C(Cl)CC2C1=O)c1ccncc1 (stereo unspecified) | – | inactive: 1.52%
O=c1[nH]c(/C=C\c2ccc(O)c(O)c2)nc(O)c1[N+](=O)[O-] | – | inactive: 19.2%

Looked up one by one from above:
Structure (SMILES) | Potency | activity change, negative = inhibition
Cc1nn(-c2ccccc2)c2sc(-c3n[nH]c(=S)o3)cc12 | inconclusive: 39.8 µM [inhibitor, single point] | –
O=C(O)COc1cccc(-c2ocnc2-c2nc(-c3ccccc3)c(-c3ccccc3)o2)c1 | inconclusive: 31.6 µM [inhibitor, partial curve] | –
CN(Cc1ccc(-n2cccn2)cc1)Cc1cn(C)nc1-c1ccccc1F | inconclusive: 39.8 µM [inhibitor, single point] | –
CCCCNC(=O)c1ccc(NS(=O)(=O)c2ccc3[nH]c(=O)[nH]c3c2)cc1 | inconclusive: 39.8 µM [inhibitor, single point] | –
O=c1[nH]c(/C=C\c2ccc(O)c(O)c2)nc(O)c1[N+](=O)[O-] | – | inactive: 19.2%
O=C(NN1C(=O)C2CC=C(Cl)CC2C1=O)c1ccncc1 (stereo unspecified) | – | inactive: 1.52%

Remaining list, next part:

Structure (SMILES) | Potency | activity change, negative = inhibition
COc1ccc(-c2[nH]n(-c3ccc([N+](=O)[O-])cc3)c(=O)c2C=NCc2ccccc2)cc1 | – | inactive: -7.53%
O=C(N/N=C\c1ccc([N+](=O)[O-])s1)c1cncc(Br)c1 | inconclusive: 7.08 µM [inhibitor, single point] | –
N#CCCn1c(=O)c(-c2cc(F)cc(F)c2)nc2cnc(Oc3cccc(Cl)c3)nc21 | inconclusive: 11.2 µM [inhibitor, partial curve] | –
Cc1ncc(C[n+]2csc(CCOP(=O)(O)O)c2C)c(N)n1 | – | inactive: -3.19%
CCCn1nc(NS(=O)(=O)c2cccc3nonc23)c2cc3cccc(C)c3nc21 | inconclusive: 2 µM [inhibitor, partial curve] | –
Cc1ccc(S(=O)(=O)N2CCN(C(=O)c3ccco3)CC2)cc1 | inconclusive: 7.08 µM [inhibitor, single point] | –
CCN(CC)c1cc(NCCO)c([N+](=O)[O-])c2nonc12 | – | inactive: -3.91%
COc1ccc(-c2nc3cnc(N(C)C)nc3n(C[C@H]3CCCO3)c2=O)cc1 | inconclusive: 3.16 µM [inhibitor, full curve, poor fit] | –
O=C(O)CCCCCN1C(=O)/C(=C\c2ccc(-c3ccc(Cl)cc3)o2)SC1=S | – | inactive: -7.54%
Cc1ccc(-c2cc(C(=O)NCCCn3ccnc3)c3ccccc3n2)s1 | inconclusive: 35.5 µM [inhibitor, single point] | –
COc1ccccc1N=Cc1c(O)c2ccccc2oc1=O | inconclusive: 39.8 µM [inhibitor, single point] | –
COc1ccc(-n2nc(C(=O)NCC(=O)N3CCC(C)CC3)c3ccccc3c2=O)cc1Cl | inconclusive: 8.91 µM [inhibitor, partial curve] | –
Nc1ccc2nn(-c3ccc(F)cc3)nc2c1 | inconclusive: 25.1 µM [inhibitor, partial curve] | –
COc1cc(-c2ccccc2)nc2ccccc12 | – | inactive: -2.82%
CCOC(=O)C(NC(=O)c1ccc(Cl)cc1Cl)(Nc1ccc(C)cc1)C(F)(F)F (stereo unspecified) | inconclusive: 39.8 µM [inhibitor, single point] | –
CSc1nc(C)cc(SC(C(C)=O)C(=O)Nc2ccccc2)n1 (stereo unspecified) | inconclusive: 39.8 µM [inhibitor, single point] | –
O=C(NCC(c1ccco1)N1CCCC1)c1cn(-c2ccccc2)nc1-c1ccc(F)cc1 (stereo unspecified) | – | inactive: -0.224%
CN1CCN(c2ccc(C(F)(F)F)cc2NC(=O)Nc2ccccc2)CC1 | – | inactive: -11.2%
CC(C)(C)N1C(=O)[C@H]2[C@@H](c3ccc(Br)cc3)N3C(=O)N(c4cccc(Br)c4)C(=O)[C@@]3(Cc3ccccc3)[C@H]2C1=O | inconclusive: 3.16 µM [inhibitor, single point] | –
COc1ccccc1CCN=C(N)NS(=O)(=O)c1cc(F)ccc1F | inconclusive: 7.08 µM [inhibitor, full curve, poor fit] | –
O=C(CSc1ccc(-c2ccccn2)nn1)Nc1ccc(F)cc1F | inconclusive: 0.126 µM [inhibitor, full curve, poor fit] | –
O=C1c2ccccc2C(=O)N1S(=O)(=O)c1ccccc1 | inconclusive: 10 µM [inhibitor, partial curve] | –

Structure (SMILES) | Potency | activity change, negative = inhibition
c1ccc2c(c1)CCN(c1nc(CN3CCOCC3)nc3sc4c(c13)CCCC4)C2 | – | inactive: 1.58%
O=C(Oc1ccc([N+](=O)[O-])cc1)c1cc(-c2ccccc2)nc2ccccc12 | inconclusive: 25.1 µM [inhibitor, single point] | –
Cc1ccc([C@H]2C(C(=O)O)=CC[C@@H](c3ccc(C(C)C)cc3)N2S(=O)(=O)c2ccc(C)cc2)cc1 | inconclusive: 31.6 µM [inhibitor, single point] | –
CSc1n[nH]c(=O)n1-c1cccc(Cl)c1 | inconclusive: 3.98 µM [inhibitor, full curve, poor fit] | –
COc1ccc(C(=O)n2nc(-c3ccco3)nc2SC)cc1OC | inconclusive: 44.7 µM [inhibitor, partial curve, poor fit] | –
Cc1ccc(C(=O)NCC(c2ccc(F)cc2)N2CCOCC2)cc1 (stereo unspecified) | inconclusive: 0.447 µM [inhibitor, partial curve, poor fit] | –
COc1ccccc1C(=O)NCCn1ccc2ccccc21 | inconclusive: 5.62 µM [inhibitor, single point] | –
Cc1nn(C)c(C)c1CN(Cc1nc(-c2ccc(F)cc2F)oc1C)C1CC1 | inconclusive: 39.8 µM [inhibitor, single point] | –
CN1c2ccccc2Sc2cc(N)ccc21 | inconclusive: 39.8 µM [inhibitor, single point] | –
COc1ccccc1N/C(N)=N/c1nc(C)cc(C)n1 | inconclusive: 3.16 µM [inhibitor, partial curve] | –
CCC1CN(S(=O)(=O)c2cc(-c3onc(C)c3C)ccc2C)c2cc(Cl)ccc2O1 (stereo unspecified) | – | inactive: -3.74%
N#Cc1ccsc1NC(=O)CSc1ncnc2ccccc12 | inconclusive: 31.6 µM [inhibitor, single point] | –
CCn1ccnc1CN(C)Cc1cn(-c2ccc(C)cc2)nc1-c1cccc(C)c1 | – | inactive: 2.73%
CN1CCN(c2ccc(CNS(=O)(=O)c3ccc(Cl)cc3)cc2)CC1 | inconclusive: 0.708 µM [inhibitor, full curve] | –
O=C(O)CCN1C(=O)/C(=C\c2ccc(OCc3ccccc3)c(OCc3ccccc3)c2)SC1=S | inconclusive: 8.91 µM [inhibitor, partial curve] | –
Cc1cc(C)cc(-n2c(C)nc3cc(C(=O)NCc4ccc(F)cc4)ccc32)c1 | – | inactive: -7.39%
COc1cc2c(cc1OC)/C(=C/C(=O)N1CCOCC1)NC(C)(C)C2 | inconclusive: 31.6 µM [inhibitor, single point] | –
O=C(Cn1c(-c2ccccn2)nc2ccccc21)N/N=C/c1ccccn1 | – | inactive: -8.79%
Cc1cc(C)cc(NC(=O)CSc2nc3ccccc3nc2N2CCCCC2)c1 | active: 35.5 µM | –
CN(CC(=O)Nc1ccc(F)c(F)c1F)C(=O)C1=COCCO1 | inconclusive: 0.112 µM [inhibitor, full curve, poor fit] | –
Cc1ccc(C)n1-c1cccc(C(=O)O)c1 | inconclusive: 22.4 µM [inhibitor, partial curve, poor fit] | –
CCOc1ccc(CCNC(=O)Cn2ncc3c([nH]c4ccccc43)c2=O)cc1OCC | inconclusive: 7.94 µM [inhibitor, single point] | –
